Assay results: US20220363719A1 (Palatin Technologies, Inc., priority 2020, published 2022)

Assay: general procedure: Fmoc solid-phase peptide synthesis; 2-chlorotrityl chloride resin; EDC/HOAt (cyclisation)
Details: whole synthesis, scale 1.0 mmol, side-chain lactam ring, sequence written open

Ac-Nle-Dab-His-D-Phe(4-F)-Arg-Trp-NH—(CH2)4—COOH
isolated mass: 73 mg | isolated yield: 6%
